Reference: PMC5601049

Target: T1, LAX1 (LAX PANICLE1) (rice) (UniProt Q7XAQ6)
T1 sequence: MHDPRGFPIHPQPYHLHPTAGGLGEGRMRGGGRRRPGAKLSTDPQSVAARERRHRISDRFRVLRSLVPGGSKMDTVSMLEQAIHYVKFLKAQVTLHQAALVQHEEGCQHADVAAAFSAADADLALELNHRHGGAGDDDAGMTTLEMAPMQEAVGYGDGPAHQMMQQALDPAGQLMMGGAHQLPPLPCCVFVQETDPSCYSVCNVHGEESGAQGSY
Assay: two-hybrid; yeast two-hybrid assay of OsRA2 and LAX1; told in one sentence, no figure, no constructs or conditions given

Substance: OsRAMOSA2 (OsRA2) protein (rice (Oryza sativa))
- binding: no binding

No constants are given. Whether binding was seen depends on the method and setting.
